# Measured values published in PubChem BioAssay AID1990 (Broad Institute, 2009).
# Amino acid sequences for entries named in this document (tags omitted).
# UniProt P08659, whole entry, looked up: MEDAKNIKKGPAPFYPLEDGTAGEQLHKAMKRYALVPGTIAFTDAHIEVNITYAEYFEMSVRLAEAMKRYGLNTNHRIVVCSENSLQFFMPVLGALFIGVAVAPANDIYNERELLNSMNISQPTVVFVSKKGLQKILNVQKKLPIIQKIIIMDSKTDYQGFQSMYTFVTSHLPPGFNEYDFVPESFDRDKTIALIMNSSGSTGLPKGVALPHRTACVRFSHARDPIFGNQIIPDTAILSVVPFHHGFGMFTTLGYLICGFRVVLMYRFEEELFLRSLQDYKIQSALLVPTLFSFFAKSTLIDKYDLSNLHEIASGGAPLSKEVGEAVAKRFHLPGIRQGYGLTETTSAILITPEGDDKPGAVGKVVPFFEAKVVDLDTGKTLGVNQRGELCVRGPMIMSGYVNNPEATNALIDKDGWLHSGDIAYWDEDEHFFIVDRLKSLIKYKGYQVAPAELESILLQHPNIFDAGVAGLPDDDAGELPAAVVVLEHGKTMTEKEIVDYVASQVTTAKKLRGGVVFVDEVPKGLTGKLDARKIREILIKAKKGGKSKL
# The median lay at about -60%. The list shows a part of the results. Entries with a potency or affinity are not part of this list. Entries without a call are filed as inconclusive in the source.
# Biological target: Luciferin 4-monooxygenase (Photinus pyralis) (UniProt P08659)
# Assay: Photinus pyralis luciferase inhibitors, H4 neuroglioma cells, confirmatory dose response, luminescence (AID 1990)
# Settings: at 12 µM (top of the series) unless noted
row,Structure (SMILES),"activity change, negative = inhibition"
1,O=C(O)c1cccc(N/N=C/c2cccc3ccccc23)c1,-65.9%
2,Cc1ccc(N/C=C/C(=O)c2cccs2)cc1,-43.4%
3,CCN(C(=O)COC(=O)c1cc(-c2ccc3cc(OC)ccc3c2)nc2ccccc12)C1CCS(=O)(=O)C1 (stereo not given),-49.2%
4,Cc1cccc2cc(C#N)c(SCC(=O)N3CC(=O)Nc4ccccc43)nc12,-71.5%
5,CN(C)CCCNC(=O)c1ccc(-c2nc(-c3ccc(Cl)cc3)cs2)cc1,-100%
6,N#CCCCC#Cc1ccc2c(c1)COc1c3ccccc3nn1-2,-60.5%
7,CCn1nnc2cc(C(=O)NCCc3ccccc3F)ccc21,-59.4%
8,COc1cc2c(c(OC)c1OC)-c1ccc(N(C)CC(OC)OC)c(=O)cc1[C@@H](NC(C)=O)CC2,-71.8%
9,CC1CN/C(=C\C(=O)c2ccc(Br)cc2)C(=O)N1 (stereo not given),-37%
10,O=C(/C=C/Nc1ccc(Br)cc1F)c1ccco1,-48.8%
11,OCCN1CCN(C(=S)c2ccc(-c3ccccc3)cc2)CC1,-34.3% [at 6 µM]
12,CC1(C)Cc2nc3sc4c(SCC(=O)NCc5ccccc5)ncnc4c3cc2CO1,-25.6%
13,COc1ccc(N/N=C/c2c(C(=O)O)ccc3ccccc23)cc1,-74.4%
14,CCCNC(=O)c1ccc(-c2nc3ccccc3s2)s1,-72.7%
15,Cc1ccc(/C=C/c2nc3ccccc3s2)s1,-83.5%
16,CCn1nc(C)c(NC(=O)/C=C/c2ccc(OC)c(COc3ccc(Br)cc3)c2)c1C,-45.5%
17,Cc1ccc(/C=C/c2nc3ccccc3c(=O)[nH]2)cc1,-61.6%
18,O=c1c2sc(-c3ccccc3)cc2nc2n1CCC2,-48%
19,COc1ccc(-c2ccc(NC(=O)c3ccco3)cc2)nn1,-68.4%
20,Cc1c(/N=C(\[O-])Nc2ccc(Br)cc2)sn[n+]1C,-42.5%

row,Structure (SMILES),"activity change, negative = inhibition"
1,CCOc1ccccc1C(=O)Nc1c[nH]c(=O)[nH]c1=O,-53.2%
2,COc1ccc(Br)cc1/C=C/c1ccc2cccc(O)c2n1,-10.1%
3,Cc1ccc(-c2nc3n(n2)Cc2ccccc2-3)cc1,-77.1%
4,Cc1cc(C)c(S(=O)(=O)Nc2ccc3c4c(cccc24)CC3)c(C)c1,-65%
5,Cc1cc(/C=c2/sc3nc4ccccc4n3c2=O)c(C)n1-c1ccccn1,-86.8%
6,CC(C)COc1ccc2[nH]c3c(c2c1)CCCC3=O,-53.8%
7,C/C(=N\NC(=O)c1c(C)nc2ccccn12)c1ccc(O)cc1O,-64.3%
8,O=C(CSC(=S)N1CCCCC1)c1ccccc1,-56%
9,c1ccc(-c2cn3c(n2)-c2ccccc2C3)cc1,-47.5%
10,c1ccc(-c2cn3nc(-c4ccccc4)sc3n2)cc1,-71.1%
11,O=C1C=C(Nc2ccc(O)cc2)C(=O)c2ccccc21,-32%
12,Cc1csc(NC(=O)c2cc3c(s2)CCCCC3)n1,-77.7%
13,Cc1cccc(-c2nc3cc(NC(=O)C4CCCO4)ccc3o2)c1 (stereo not given),-50.7%
14,COc1ccc(C(=O)O/N=C(\N)c2ccccc2)c(OC)c1,-74.5%
15,COC(=O)c1ccc(C)c(NS(=O)(=O)c2ccc(OC)cc2)c1,-72.7%
16,Cn1c(=N)n(CC(=O)c2ccccc2)c2ccccc21,-77.1%
17,O=C(Nc1cccc(O)c1)c1noc2c1CCCCC2,-59.1%
18,C(=C\c1nnc2c3ccccc3ncn12)/c1ccccc1,34.8%
19,Cc1ccc2nc(CSc3nc(C)ccc3C#N)[nH]c2c1,57.2%
20,Cc1ccc(-n2[nH]c(=O)c(-c3ccccn3)c2C)cc1,-78.9%

row,Structure (SMILES),"activity change, negative = inhibition"
1,O=C(c1cc(-c2ccc(Cl)cc2Cl)on1)N1CCOCC1,-53.5%
2,CN(C)c1ccc(-c2nc3ccccc3n2C)cc1,-59.5%
3,O=C1CCCc2c1[nH]c1ccc(Cl)cc21,-73.9%
4,Cc1cc(N2CCCCC2)n2ncc(-c3ccccc3)c2n1,-20.5%
5,OCCCNc1cc(-c2ccnc(Nc3cccc(Cl)c3)n2)ccn1,-52.2%
6,Cc1ccc(NC2=C/C(=N\S(=O)(=O)c3cccs3)c3ccccc3C2=O)c(C)c1,-101%
7,O=C1CN2Cc3c(ccc(Cl)c3Cl)N=C2N1,-62%
8,Cc1c(OCC(=O)Nc2cccnc2)ccc2c3c(c(=O)oc12)CCC3,105%
9,Oc1c(Br)cc(Br)cc1/C=N/Nc1ccc(Cl)nn1,-84.6%
10,O=C(Nc1ccc(Br)cc1F)c1ccc2c(c1)OCCO2,-59.9%
11,O=Nc1c(-c2c(O)[nH]c3cc(Br)ccc23)[nH]c2ccccc12,-56%
12,O=C(/C=C\Nc1ccccn1)c1ccccc1,-31.2%
13,O=C1/C(=C/Nc2ccc3c(c2)OCO3)CCc2ccccc21,-59.5%
14,Cc1nn(C)c(C)c1/C=C(/C(=O)C(C)(C)C)n1cncn1,64%
15,Cc1ccc2nc(-c3ccc(NC(=O)CCS(=O)(=O)c4ccccc4)cc3)sc2c1,-64.6%
16,Cc1nc(SCc2cccc(C(=O)O)c2)nc2c1CCCC2,-48.8%
17,O=C(c1cc(-c2ccc3c(c2)OCO3)on1)N1CCCCC1,-66%
18,CCOc1ccc(S(=O)(=O)Nc2cc(OC)ccc2OC)cc1,-80.1%
19,CN(C)c1ccc(N=Nc2ccc(C(=O)O)cc2)cc1,-1%
20,O=C(O)c1ccc2cc(-c3ccccc3)[nH]c2c1,-11.3%

# Taken from above:
# Cc1cc(N2CCCCC2)n2ncc(-c3ccccc3)c2n1 – activity change, negative = inhibition: -20.5%
# O=C1/C(=C/Nc2ccc3c(c2)OCO3)CCc2ccccc21 – activity change, negative = inhibition: -59.5%
# Cc1c(OCC(=O)Nc2cccnc2)ccc2c3c(c(=O)oc12)CCC3 – activity change, negative = inhibition: 105%
